PubChem BioAssay AID1259254 – NCATS | 2017

- Screen: 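Gene knock-downs that lead to re-replication, shown by excess G2 DNA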 (primary screen)
- Cell system: human HCT116 colorectal cancer cells
- Reagent: single siRNA against human genes
- Time to read-out: 3 days
- Read-out: 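Nuclei stained with Hoechst and imaged; cell-cycle phase assigned by DNA content; G2 share scaled per plate, non-targeting siRNA 0%, GMNN siRNA 100%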
- Scale: G2 robust z-score and G2 cells, % of GMNN control: higher = more G2 cells, more excess DNA replication
- Hit rule: 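Active siRNAs have a G2 robust z of 5 or more median absolute deviations over the median, which in these data means about 38% or higher of GMNN control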
The deposit covers about 59,000 reagents; this is a part drawn at random. Over the whole deposit, about 1,550 (2.6%) are marked active. 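G2 share is only a proxy for re-replication; each gene was hit by three separate siRNAs, and active genes were retested.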 Entries without a mark were called inactive. The numbers tell different reagents against one gene apart. Not all columns of the deposit are shown. Not given: the amount of reagent.

For OR2L8 (GeneID 391190) #1, what was measured?
G2 robust z-score: 1.28; G2 cells, % of GMNN control: 12

What is on record for OR2L8 (GeneID 391190) #2?
G2 robust z-score: -0.89; G2 cells, % of GMNN control: -3.3

How did the screen score OR2L8 (GeneID 391190) #3?
G2 robust z-score: 1.49; G2 cells, % of GMNN control: 13.4

With RPS7P4 (GeneID 149224) #1, what does the deposit list?
G2 robust z-score: -0.31; G2 cells, % of GMNN control: 0.789

Which result is listed for RPS7P4 (GeneID 149224) #2?
G2 robust z-score: 2.93; G2 cells, % of GMNN control: 23.6

With RPS7P4 (GeneID 149224) #3, what was measured?
G2 robust z-score: 1.14; G2 cells, % of GMNN control: 11

With ZCCHC2 (GeneID 54877) #1, what was measured?
G2 robust z-score: 3.74; G2 cells, % of GMNN control: 29.3

What did the screen give for ZCCHC2 (GeneID 54877) #2?
G2 robust z-score: 0.987; G2 cells, % of GMNN control: 9.92

With ZCCHC2 (GeneID 54877) #3, how do the results read?
G2 robust z-score: 0.699; G2 cells, % of GMNN control: 7.89

2 entries from above, arranged by “G2 robust z-score”, high to low.
OR2L8 (GeneID 391190) #3 | G2 robust z-score = 1.49; G2 cells, % of GMNN control = 13.4
RPS7P4 (GeneID 149224) #1 | G2 robust z-score = -0.31; G2 cells, % of GMNN control = 0.789

The listing continues:
What is on record for KRT78 (GeneID 196374) #1?
G2 robust z-score: 4.18; G2 cells, % of GMNN control: 32.4

What is on record for KRT78 (GeneID 196374) #2?
G2 robust z-score: 0.757; G2 cells, % of GMNN control: 8.29

What is on record for KRT78 (GeneID 196374) #3?
G2 robust z-score: 6.81 (active); G2 cells, % of GMNN control: 50.9

What is on record for VPS36 (GeneID 51028) #1?
G2 robust z-score: -0.338; G2 cells, % of GMNN control: 0.591

How did the screen score VPS36 (GeneID 51028) #2?
G2 robust z-score: -0.716; G2 cells, % of GMNN control: -2.07

What is on record for VPS36 (GeneID 51028) #3?
G2 robust z-score: 0.475; G2 cells, % of GMNN control: 6.31

Which result is listed for MILR1 (GeneID 284021) #1?
G2 robust z-score: 0.365; G2 cells, % of GMNN control: 5.54

How did the screen score MILR1 (GeneID 284021) #2?
G2 robust z-score: 0.173; G2 cells, % of GMNN control: 4.19

For MILR1 (GeneID 284021) #3, what was measured?
G2 robust z-score: 1.75; G2 cells, % of GMNN control: 15.3

What is on record for CACNB2 (GeneID 783) #1?
G2 robust z-score: 0.737; G2 cells, % of GMNN control: 8.16

What did the screen give for CACNB2 (GeneID 783) #2?
G2 robust z-score: 0.268; G2 cells, % of GMNN control: 4.86

How did the screen score CACNB2 (GeneID 783) #3?
G2 robust z-score: -1.05; G2 cells, % of GMNN control: -4.42

How did the screen score ADM5 (GeneID 199800) #1?
G2 robust z-score: -0.297; G2 cells, % of GMNN control: 0.877

For ADM5 (GeneID 199800) #2, how do the results read?
G2 robust z-score: -0.477; G2 cells, % of GMNN control: -0.387

How did the screen score ADM5 (GeneID 199800) #3?
G2 robust z-score: -0.75; G2 cells, % of GMNN control: -2.31
